# PubChem BioAssay AID1259308, NCATS – 2017
# Screen: 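Genes whose loss raises luciferase production in HEK293 cells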 (primary screen)
# System: human HEK293 embryonic kidney cells stably expressing firefly luciferase (HEK-CMV-Luc2-Hygro)
# Reagents: single siRNA against human genes, 0.8 pmol siRNA per well
# Timing: 72 h
# Measured: 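Luciferase light (ONE-Glo) measured on one replicate plate set and viability (CellTiter-Glo) on the other, scaled to a negative control siRNA, with robust z-scores and luciferase per cell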
# Scale: total luciferase, z-score and total luciferase, % of control: higher = more reporter protein produced; luciferase per cell, z-score: higher = more reporter output per viable cell
# Hit rule: 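Active when the median/MAD z-score for overall luciferase is greater than 3; a gene was taken forward for validation with new siRNAs if at least two of its three siRNAs passed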
# Meaning of the calls: active = raised luciferase; inactive = no rise
# Shown is one part, drawn at random, of about 59,000 deposited reagents. In the full data, about 1,510 (2.6%) got an active call. 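Calls use total luciferase alone and ignore viability, so some active siRNAs may act by altering cell number.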 Reagents against one gene are numbered here. Further read-outs or replicates are left out here.
Target gene,siRNA no.,"total luciferase, z-score","total luciferase, % of control","luciferase per cell, z-score",Outcome
SS18L1 (GeneID 26039),1,-0.679,68.4,-0.236,inactive
SS18L1 (GeneID 26039),2,-0.36,74.7,-0.16,inactive
SS18L1 (GeneID 26039),3,5.8,197,4.37,active
DNAJC5G (GeneID 285126),1,0.326,88.4,0.426,inactive
DNAJC5G (GeneID 285126),2,-0.809,65.8,-0.653,inactive
DNAJC5G (GeneID 285126),3,-0.324,75.4,-0.961,inactive
SLC30A7 (GeneID 148867),1,-0.39,74.1,-0.572,inactive
SLC30A7 (GeneID 148867),2,0.409,90,-0.532,inactive
SLC30A7 (GeneID 148867),3,1.57,113,0.947,inactive
MED21 (GeneID 9412),1,-2.52,31.7,-2.61,inactive
MED21 (GeneID 9412),2,-2.01,41.9,-1.49,inactive
MED21 (GeneID 9412),3,-1.34,55.2,0.314,inactive
CR2 (GeneID 1380),1,1.32,108,1.39,inactive
CR2 (GeneID 1380),2,-0.635,69.2,-0.792,inactive
CR2 (GeneID 1380),3,0.278,87.4,-0.615,inactive
TP53I3 (GeneID 9540),1,1.57,113,1.9,inactive
TP53I3 (GeneID 9540),2,0.348,88.8,0.135,inactive
TP53I3 (GeneID 9540),3,-0.403,73.9,-0.23,inactive
ASCL4 (GeneID 121549),1,1.71,116,1.53,inactive
ASCL4 (GeneID 121549),2,1.81,118,1.36,inactive
ASCL4 (GeneID 121549),3,-0.528,71.4,0.0454,inactive
WDR38 (GeneID 401551),1,-0.42,73.5,-0.055,inactive
WDR38 (GeneID 401551),2,-0.833,65.3,-0.577,inactive
WDR38 (GeneID 401551),3,-0.103,79.8,1.36,inactive
